Reference: patent US4076830A, “Alkylmethanodibenzocycloheptapyrroles” (E. I. Du Pont de Nemours and Company, priority 1976, dated 1978)

Experiment: general tranquilizer activity in mice (exploratory loss, ptosis, catatonia, muscle tone, grip and lift reflexes, pinna twitch reflex, tremors, death)
Settings: mouse, in vivo, po
Method: Groups of five Carworth CF1 S female mice, 16-20 g each, were fasted 16-22 hours before use. The mice were put in opaque plastic "shoe-box" cages 15-30 min. before injection, and then treated orally with 4, 12, 36, 108 and 324 mg/kg of the compound to be tested […] in 1% aqueous distilled water solution of methylcellulose (Methocel®). Each dose was given in a standard volume of 0.45 ml. Observations were made at 0.5, 2 and 24 hours after dosing. ED50 values were calculated for each parameter including death (LD50). The ED50 and LD50 values are the doses at which 50% of the animals would be expected to respond.
Exploratory Activity - The mouse is placed on a stainless steel wire mesh screen (8 inches × 12 inches, 3 mesh per inch, 174 inch mesh openings) "shoe-box" lid (1 inch high) and is observed for normal activities, such as nose movements, head movements with apparent visual examination of the area, and/or walking around on the screen. Absence of or marked depression of these activities for 5 seconds constitutes loss of exploratory activity.
Ptosis - The mouse is picked up by the tail and placed on the screen with its head facing the observer. […]
Muscle Tone - The observer gently strokes the abdominal musculature of the mouse with thumb and forefinger. Flaccidity (or rarely, tenseness) is recorded. […]

In the case of `CN1C(=O)CN=C(c2ccccc2)c2cc(Cl)ccc21` [Diazepam, reference compound], the LD50 at 24 h is reported as > 1000 mg/kg.
